From the supplement of paper PMC10849652
This is one part of the list.

Chains of the proteins cited; added tags and fusions are not shown. Lines headed by an entry give the natural chain unless they say otherwise; changes in a name come on top.
UniProt Q96CQ1: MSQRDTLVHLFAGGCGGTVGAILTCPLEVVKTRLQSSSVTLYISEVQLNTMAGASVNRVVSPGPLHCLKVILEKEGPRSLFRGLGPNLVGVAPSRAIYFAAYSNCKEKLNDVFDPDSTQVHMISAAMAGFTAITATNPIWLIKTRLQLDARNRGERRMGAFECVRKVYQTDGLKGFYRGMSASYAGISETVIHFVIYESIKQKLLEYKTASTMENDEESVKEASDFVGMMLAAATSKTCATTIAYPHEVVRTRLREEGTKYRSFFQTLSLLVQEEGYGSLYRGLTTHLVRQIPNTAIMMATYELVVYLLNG
UniProt P51531, whole entry, looked up: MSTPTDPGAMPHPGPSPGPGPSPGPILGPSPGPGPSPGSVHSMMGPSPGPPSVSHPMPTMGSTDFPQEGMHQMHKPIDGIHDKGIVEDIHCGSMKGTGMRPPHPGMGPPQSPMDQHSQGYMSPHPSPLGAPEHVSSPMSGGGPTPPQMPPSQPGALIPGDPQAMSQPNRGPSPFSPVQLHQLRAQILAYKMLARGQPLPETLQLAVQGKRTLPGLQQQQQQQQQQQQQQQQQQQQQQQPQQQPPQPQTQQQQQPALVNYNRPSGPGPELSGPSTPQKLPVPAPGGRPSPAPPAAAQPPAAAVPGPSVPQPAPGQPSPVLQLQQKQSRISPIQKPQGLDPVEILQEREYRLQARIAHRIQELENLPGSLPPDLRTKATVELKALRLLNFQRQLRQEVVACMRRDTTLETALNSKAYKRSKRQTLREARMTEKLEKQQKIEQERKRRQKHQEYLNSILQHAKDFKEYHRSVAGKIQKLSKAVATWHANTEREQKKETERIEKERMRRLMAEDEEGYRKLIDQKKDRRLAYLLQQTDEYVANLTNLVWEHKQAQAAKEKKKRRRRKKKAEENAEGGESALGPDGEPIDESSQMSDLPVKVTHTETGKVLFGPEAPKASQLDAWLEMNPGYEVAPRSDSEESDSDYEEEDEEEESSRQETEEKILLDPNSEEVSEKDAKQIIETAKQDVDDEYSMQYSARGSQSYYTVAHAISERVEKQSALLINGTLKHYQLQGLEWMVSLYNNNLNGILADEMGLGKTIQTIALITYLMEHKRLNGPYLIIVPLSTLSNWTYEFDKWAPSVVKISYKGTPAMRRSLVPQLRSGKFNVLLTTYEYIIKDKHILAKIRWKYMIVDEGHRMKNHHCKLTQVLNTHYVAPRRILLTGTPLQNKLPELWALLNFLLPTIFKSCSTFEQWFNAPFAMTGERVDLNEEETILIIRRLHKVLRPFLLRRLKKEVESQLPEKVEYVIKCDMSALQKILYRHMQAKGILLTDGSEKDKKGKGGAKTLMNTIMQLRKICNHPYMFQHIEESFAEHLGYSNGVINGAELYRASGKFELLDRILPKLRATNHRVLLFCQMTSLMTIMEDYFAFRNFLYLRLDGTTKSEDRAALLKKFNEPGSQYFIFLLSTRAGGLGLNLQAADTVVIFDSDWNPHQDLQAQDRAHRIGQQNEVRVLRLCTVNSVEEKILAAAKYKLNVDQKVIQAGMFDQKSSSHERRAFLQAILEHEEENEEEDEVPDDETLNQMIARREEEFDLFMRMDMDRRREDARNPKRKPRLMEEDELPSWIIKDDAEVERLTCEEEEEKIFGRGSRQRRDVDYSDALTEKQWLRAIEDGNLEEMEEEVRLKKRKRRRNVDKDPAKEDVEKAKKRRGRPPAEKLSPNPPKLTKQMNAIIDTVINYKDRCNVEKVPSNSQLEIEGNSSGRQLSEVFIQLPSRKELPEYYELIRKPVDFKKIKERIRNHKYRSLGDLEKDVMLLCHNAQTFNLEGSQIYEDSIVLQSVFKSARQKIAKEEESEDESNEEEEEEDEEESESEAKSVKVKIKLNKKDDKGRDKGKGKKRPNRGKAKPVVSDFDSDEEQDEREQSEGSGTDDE
UniProt Q5BKX6: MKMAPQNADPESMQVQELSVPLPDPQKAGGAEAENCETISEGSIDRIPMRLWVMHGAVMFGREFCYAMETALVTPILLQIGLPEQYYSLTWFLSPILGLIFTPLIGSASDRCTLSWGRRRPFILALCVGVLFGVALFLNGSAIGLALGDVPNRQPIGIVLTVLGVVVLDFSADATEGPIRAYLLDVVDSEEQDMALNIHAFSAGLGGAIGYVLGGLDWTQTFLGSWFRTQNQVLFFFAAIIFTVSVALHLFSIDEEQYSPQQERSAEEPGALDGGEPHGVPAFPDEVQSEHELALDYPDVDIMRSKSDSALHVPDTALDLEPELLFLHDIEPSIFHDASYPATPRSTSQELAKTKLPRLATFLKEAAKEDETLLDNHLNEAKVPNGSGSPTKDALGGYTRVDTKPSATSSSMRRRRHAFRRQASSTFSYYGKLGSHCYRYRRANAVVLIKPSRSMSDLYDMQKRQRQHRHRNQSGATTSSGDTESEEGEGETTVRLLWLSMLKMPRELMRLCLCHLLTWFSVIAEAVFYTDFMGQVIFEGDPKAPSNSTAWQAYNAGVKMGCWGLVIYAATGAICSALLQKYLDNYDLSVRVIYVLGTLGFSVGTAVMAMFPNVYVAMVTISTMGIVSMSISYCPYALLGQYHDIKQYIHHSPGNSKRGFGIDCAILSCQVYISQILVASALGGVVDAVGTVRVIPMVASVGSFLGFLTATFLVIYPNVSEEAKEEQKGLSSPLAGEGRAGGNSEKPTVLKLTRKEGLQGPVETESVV
UniProt Q5SVS4: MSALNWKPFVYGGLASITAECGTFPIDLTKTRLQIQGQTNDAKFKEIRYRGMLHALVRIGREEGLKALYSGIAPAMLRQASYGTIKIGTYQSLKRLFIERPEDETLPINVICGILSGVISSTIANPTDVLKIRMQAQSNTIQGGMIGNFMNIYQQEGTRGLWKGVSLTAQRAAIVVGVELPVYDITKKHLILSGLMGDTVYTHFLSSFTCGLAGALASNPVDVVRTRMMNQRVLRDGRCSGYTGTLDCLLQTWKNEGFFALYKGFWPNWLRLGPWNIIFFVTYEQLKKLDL
UniProt P50443: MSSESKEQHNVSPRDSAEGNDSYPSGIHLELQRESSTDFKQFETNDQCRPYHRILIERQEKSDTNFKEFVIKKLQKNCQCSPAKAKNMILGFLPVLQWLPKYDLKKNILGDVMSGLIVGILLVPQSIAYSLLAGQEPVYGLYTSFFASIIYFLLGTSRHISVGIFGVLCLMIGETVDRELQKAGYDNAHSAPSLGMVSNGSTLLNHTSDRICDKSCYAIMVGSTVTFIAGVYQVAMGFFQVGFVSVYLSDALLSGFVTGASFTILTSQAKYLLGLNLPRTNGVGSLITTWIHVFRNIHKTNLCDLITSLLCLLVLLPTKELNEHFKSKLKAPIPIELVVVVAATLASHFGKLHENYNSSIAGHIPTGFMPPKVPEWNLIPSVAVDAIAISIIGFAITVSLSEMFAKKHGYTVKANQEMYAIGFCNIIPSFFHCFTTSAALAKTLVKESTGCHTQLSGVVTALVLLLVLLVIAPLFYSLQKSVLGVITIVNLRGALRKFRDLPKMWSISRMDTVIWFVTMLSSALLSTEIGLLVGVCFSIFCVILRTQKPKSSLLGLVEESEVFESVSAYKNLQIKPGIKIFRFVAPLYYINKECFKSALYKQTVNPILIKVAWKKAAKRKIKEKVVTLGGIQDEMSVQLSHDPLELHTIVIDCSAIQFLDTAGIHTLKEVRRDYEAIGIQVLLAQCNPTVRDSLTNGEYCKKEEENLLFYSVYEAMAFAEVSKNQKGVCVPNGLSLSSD
UniProt O95391: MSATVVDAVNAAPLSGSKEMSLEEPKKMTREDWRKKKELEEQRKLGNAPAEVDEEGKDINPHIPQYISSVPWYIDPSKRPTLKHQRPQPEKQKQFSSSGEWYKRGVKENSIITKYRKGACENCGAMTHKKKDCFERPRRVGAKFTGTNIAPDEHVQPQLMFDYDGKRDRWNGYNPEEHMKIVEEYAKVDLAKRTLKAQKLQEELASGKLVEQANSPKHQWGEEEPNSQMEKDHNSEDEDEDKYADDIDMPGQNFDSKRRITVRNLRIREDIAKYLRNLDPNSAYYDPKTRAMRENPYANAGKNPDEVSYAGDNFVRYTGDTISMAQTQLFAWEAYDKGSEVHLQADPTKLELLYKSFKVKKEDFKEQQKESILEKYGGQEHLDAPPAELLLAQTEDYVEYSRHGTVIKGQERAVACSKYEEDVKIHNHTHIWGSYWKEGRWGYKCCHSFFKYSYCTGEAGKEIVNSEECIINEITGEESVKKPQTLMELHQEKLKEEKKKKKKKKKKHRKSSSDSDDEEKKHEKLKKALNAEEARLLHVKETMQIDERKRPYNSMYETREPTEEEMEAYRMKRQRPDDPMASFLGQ
UniProt Q92581: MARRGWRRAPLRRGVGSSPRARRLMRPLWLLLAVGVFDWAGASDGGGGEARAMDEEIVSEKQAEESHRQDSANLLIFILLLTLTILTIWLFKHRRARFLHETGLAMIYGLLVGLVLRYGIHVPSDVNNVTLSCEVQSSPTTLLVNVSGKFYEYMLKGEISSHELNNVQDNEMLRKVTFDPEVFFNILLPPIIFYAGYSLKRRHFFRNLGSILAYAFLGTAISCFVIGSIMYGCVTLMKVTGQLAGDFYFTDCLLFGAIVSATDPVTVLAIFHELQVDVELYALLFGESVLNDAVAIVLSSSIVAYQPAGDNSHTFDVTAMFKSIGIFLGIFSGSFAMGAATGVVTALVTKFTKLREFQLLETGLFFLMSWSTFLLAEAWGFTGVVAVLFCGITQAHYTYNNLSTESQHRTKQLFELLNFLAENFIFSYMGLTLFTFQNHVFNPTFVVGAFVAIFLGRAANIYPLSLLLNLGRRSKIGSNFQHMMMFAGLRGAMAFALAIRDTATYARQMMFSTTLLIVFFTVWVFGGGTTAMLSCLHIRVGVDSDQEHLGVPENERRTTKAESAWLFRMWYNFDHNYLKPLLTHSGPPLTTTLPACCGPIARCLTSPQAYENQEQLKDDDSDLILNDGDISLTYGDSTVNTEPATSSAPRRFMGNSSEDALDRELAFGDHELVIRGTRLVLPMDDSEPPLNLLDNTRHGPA
UniProt Q96K37: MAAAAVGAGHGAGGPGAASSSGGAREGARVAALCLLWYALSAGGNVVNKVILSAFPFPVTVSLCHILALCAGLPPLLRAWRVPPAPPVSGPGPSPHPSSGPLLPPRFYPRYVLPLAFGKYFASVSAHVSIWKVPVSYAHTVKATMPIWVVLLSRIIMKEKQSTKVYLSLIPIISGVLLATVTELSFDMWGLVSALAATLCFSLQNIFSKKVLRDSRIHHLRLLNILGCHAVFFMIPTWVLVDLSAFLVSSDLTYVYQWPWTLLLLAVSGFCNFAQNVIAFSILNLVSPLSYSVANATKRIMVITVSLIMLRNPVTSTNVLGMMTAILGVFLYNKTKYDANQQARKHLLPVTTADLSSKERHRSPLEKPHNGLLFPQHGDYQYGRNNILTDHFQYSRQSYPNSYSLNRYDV
UniProt Q9Y2D2: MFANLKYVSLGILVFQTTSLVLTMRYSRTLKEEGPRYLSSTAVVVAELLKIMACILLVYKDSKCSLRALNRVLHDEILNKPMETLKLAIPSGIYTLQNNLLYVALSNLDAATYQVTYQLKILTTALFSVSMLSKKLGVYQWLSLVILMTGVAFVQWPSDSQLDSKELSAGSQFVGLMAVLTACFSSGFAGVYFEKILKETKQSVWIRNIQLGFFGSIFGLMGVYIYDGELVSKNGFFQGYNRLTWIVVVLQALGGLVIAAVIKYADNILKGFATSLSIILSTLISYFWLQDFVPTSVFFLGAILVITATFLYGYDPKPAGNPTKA
UniProt Q8NEW0: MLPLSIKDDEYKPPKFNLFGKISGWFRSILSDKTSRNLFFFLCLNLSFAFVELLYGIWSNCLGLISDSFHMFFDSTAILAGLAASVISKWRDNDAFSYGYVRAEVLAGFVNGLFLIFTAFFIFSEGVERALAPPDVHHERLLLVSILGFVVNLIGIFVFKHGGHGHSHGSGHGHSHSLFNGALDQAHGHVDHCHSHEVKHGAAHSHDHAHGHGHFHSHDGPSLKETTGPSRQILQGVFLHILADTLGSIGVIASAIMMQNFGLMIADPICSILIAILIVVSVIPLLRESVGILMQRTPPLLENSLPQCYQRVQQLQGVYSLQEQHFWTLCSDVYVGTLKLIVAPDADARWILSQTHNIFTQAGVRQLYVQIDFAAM
UniProt Q969S0: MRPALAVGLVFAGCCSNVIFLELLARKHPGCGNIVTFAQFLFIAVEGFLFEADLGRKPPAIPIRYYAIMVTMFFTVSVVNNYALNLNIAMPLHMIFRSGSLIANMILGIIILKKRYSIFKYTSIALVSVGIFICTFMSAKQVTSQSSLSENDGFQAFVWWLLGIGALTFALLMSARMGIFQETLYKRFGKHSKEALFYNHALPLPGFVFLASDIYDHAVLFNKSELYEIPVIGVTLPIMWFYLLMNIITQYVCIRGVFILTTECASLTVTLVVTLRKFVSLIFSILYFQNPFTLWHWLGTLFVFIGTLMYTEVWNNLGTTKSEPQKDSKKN

Assays:
Assay in all cases: log2 fold change, soluble protein after heating vs DMSO (PISA); higher = thermal stabilisation; K562 lysate, 10 uM; active = over 0.2 and 3.5 SD of the protein, either way, in both replicates (recomputed)
vemurafenib = compound: CCCS(=O)(=O)Nc1ccc(F)c(C(=O)c2c[nH]c3ncc(-c4ccc(Cl)cc4)cc23)c1F [vemurafenib]
How it was run: (§1)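 Quantification was by TMTpro 16plex LC-MS/MS with equalised channel sums, applied to the supernatant after 21,000xg for 90 min. Samples were crude K562 extract at 1 mg/mL protein in PBS pH 7.4 with 1 mM MgCl2, treated with 10 μM compound for 30 min, heated for 3 min across 48°C-58°C, pooled and brought to 0.5% NP-40 at 4°C. Values are log-two fold changes in thermal stability relative to solvent controls, from duplicates.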

[1] = compound: CCCS(=O)(=O)Nc1ccc(F)c(C(=O)c2c[nH]c3ncc(Cl)cc23)c1F
How it was run: as §1

[2] = compound: CC[C@@H]1C(=O)N(C)c2cnc(Nc3ccc(C(=O)NC4CCN(C)CC4)cc3OC)nc2N1C1CCCC1
How it was run: as §1

volasertib = compound: CC[C@@H]1C(=O)N(C)c2cnc(Nc3ccc(C(=O)N[C@H]4CC[C@H](N5CCN(CC6CC6)CC5)CC4)cc3OC)nc2N1C(C)C [volasertib]
How it was run: as §1

[3] = compound: CCn1c(C(=O)N(C2CC2)C2CC2)cc2c3c(ncn3C)c(Nc3cc(C)n(C)n3)nc21
How it was run: as §1

[4] = compound: CCn1cc(-c2ccnc3[nH]c(-c4cccc(CN(C)C)c4)cc23)c(-c2ccc(NC(=O)N(C)C)cc2)n1
How it was run: as §1

[5] = compound: CN1CCC(CNc2ccc3ncc(-c4cccc(OC(F)(F)F)c4)n3n2)CC1
How it was run: as §1

saracatinib = compound: CN1CCN(CCOc2cc(OC3CCOCC3)c3c(Nc4c(Cl)ccc5c4OCO5)ncnc3c2)CC1 [saracatinib]
How it was run: as §1

sotrastaurin = compound: CN1CCN(c2nc(C3=C(c4c[nH]c5ccccc45)C(=O)NC3=O)c3ccccc3n2)CC1 [sotrastaurin]
How it was run: as §1

alvocidib = compound: CN1CC[C@H](c2c(O)cc(O)c3c(=O)cc(-c4ccccc4Cl)oc23)[C@H](O)C1 [alvocidib]
How it was run: as §1

Tubastatin A = compound: CN1CCc2c(c3ccccc3n2Cc2ccc(C(=O)NO)cc2)C1 [Tubastatin A]
How it was run: as §1

[6] = compound: CNC(=O)C1=CC=CC=C1NC2=NC(=NC=C2Cl)NC3=C(C=C(C=C3)N4CCOCC4)OC
How it was run: as §1

defactinib = compound: CNC(=O)c1ccc(Nc2ncc(C(F)(F)F)c(NCc3nccnc3N(C)S(C)(=O)=O)n2)cc1 [defactinib]
How it was run: as §1

[7] = compound: CNc1nc(-c2ccc3c(N)n[nH]c3c2)cc(N2C[C@@H](C(=O)NC3CCCCC3)CC[C@H]2C)n1
How it was run: as §1

encorafenib = compound: COC(=O)N[C@@H](C)CNc1nccc(-c2cn(C(C)C)nc2-c2cc(Cl)cc(NS(C)(=O)=O)c2F)n1 [encorafenib]
How it was run: as §1

[8] = compound: COC(=O)[C@H](CCSC)NC(=O)C1=C(C=C(C=C1)NC[C@H](CS)N)C2=CC=CC=C2
How it was run: as §1

alisertib = compound: COc1cc(Nc2ncc3c(n2)-c2ccc(Cl)cc2C(c2c(F)cccc2OC)=NC3)ccc1C(=O)O [alisertib]
How it was run: as §1

[9] = compound: COc1cc2nc(-c3cc(F)ccc3O)nc(N[C@@H]3CNC[C@H]3C(C)(C)O)c2cc1OC
How it was run: as §1

gefitinib = compound: COc1cc2ncnc(Nc3ccc(F)c(Cl)c3)c2cc1OCCCN1CCOCC1 [gefitinib]
How it was run: as §1

barasertib = compound: CCN(CCCOc1ccc2c(Nc3cc(CC(=O)Nc4cccc(F)c4)[nH]n3)ncnc2c1)CCOP(=O)(O)O [barasertib]
How it was run: as §1

| Target | log2 fold change (vemurafenib) | log2 fold change [1] | log2 fold change [2] | log2 fold change (volasertib) | log2 fold change [3] | log2 fold change [4] | log2 fold change [5] | log2 fold change (saracatinib) | log2 fold change (sotrastaurin) | log2 fold change (alvocidib) | log2 fold change (Tubastatin A) | log2 fold change [6] | log2 fold change (defactinib) | log2 fold change [7] | log2 fold change (encorafenib) | log2 fold change [8] | log2 fold change (alisertib) | log2 fold change [9] | log2 fold change (gefitinib) | log2 fold change (barasertib) |
| --- | --- | --- | --- | --- | --- | --- | --- | --- | --- | --- | --- | --- | --- | --- | --- | --- | --- | --- | --- | --- |
| SLC40A1 (UniProt Q9NP59) | inactive: 0.01 | inactive: -0.037 | inactive: 0.123 | inactive: 0.037 | inactive: -0.106 | active: -0.491 | inactive: 0.067 | inactive: 0 | inactive: 0.026 | inactive: 0.002 | inactive: 0.145 | inactive: -0.05 | inactive: 0.087 | inactive: -0.029 | inactive: 0.013 | inactive: -0.072 | inactive: 0.018 | inactive: 0.039 | inactive: -0.01 | – |
| SLC35F2 (UniProt Q8IXU6) | inactive: 0.015 | inactive: 0.008 | inactive: 0.012 | inactive: 0.023 | inactive: 0.015 | inactive: -0.188 | inactive: 0.124 | inactive: -0.021 | – | inactive: -0.133 | inactive: 0.014 | inactive: -0.065 | inactive: 0.101 | inactive: -0.069 | inactive: 0.024 | inactive: -0.084 | inactive: -0.021 | inactive: 0.027 | inactive: -0.026 | inactive: -0.063 |
| SLC22A5 isoform 3 (UniProt O76082) | inactive: 0.015 | inactive: -0.149 | – | inactive: 0.074 | inactive: -0.319 | inactive: -0.05 | inactive: 0.079 | inactive: 0.134 | inactive: -0.043 | inactive: 0.171 | inactive: 0.029 | inactive: -0.036 | inactive: -0.351 | inactive: -0.006 | – | – | – | inactive: 0.113 | – | inactive: -0.064 |
| SLC66A3 (UniProt Q8N755) | inactive: 0.079 | inactive: 0.024 | – | inactive: -0.029 | – | – | – | inactive: 0.069 | inactive: -0.068 | – | – | – | inactive: -0.022 | inactive: 0.017 | – | – | – | inactive: -0.098 | – | – |
| SLC25A36 (UniProt Q96CQ1) | inactive: -0.272 | inactive: 0.007 | inactive: 0.113 | inactive: -0.045 | inactive: 0.039 | inactive: -0.016 | inactive: 0.035 | inactive: -0.001 | inactive: -0.055 | inactive: 0.024 | inactive: -0.047 | inactive: 0.048 | inactive: 0.068 | inactive: 0.029 | inactive: 0.041 | inactive: 0 | inactive: 0.04 | inactive: 0.049 | inactive: 0.025 | – |
| SMARCA2 (UniProt P51531) | inactive: 0.041 | inactive: 0.04 | inactive: 0.075 | inactive: -0.024 | inactive: 0.037 | inactive: 0.129 | inactive: -0.069 | inactive: 0.042 | inactive: -0.011 | inactive: 0.042 | inactive: -0.025 | inactive: 0.053 | inactive: 0.047 | inactive: 0.054 | inactive: 0.006 | inactive: 0.046 | inactive: -0.008 | inactive: 0.002 | inactive: -0.098 | inactive: 0.061 |
| SLC45A4 isoform 3 (UniProt Q5BKX6) | inactive: 0.06 | inactive: 0.013 | inactive: -0.265 | inactive: -0.005 | inactive: 0.05 | inactive: 0.17 | inactive: -0.114 | – | inactive: 0.068 | inactive: 0.034 | inactive: 0.044 | inactive: -0.059 | inactive: -0.016 | – | inactive: 0.142 | inactive: -0.081 | inactive: 0.183 | inactive: 0.004 | inactive: -0.181 | inactive: 0 |
| SLC25A30 (UniProt Q5SVS4) | inactive: -0.054 | inactive: -0.017 | – | inactive: 0.025 | inactive: 0.012 | inactive: -0.017 | inactive: 0.068 | inactive: -0.129 | inactive: 0.067 | inactive: -0.069 | inactive: -0.037 | inactive: 0.026 | inactive: -0.015 | inactive: 0.086 | – | – | inactive: -0.065 | inactive: -0.005 | inactive: -0.051 | inactive: 0.033 |
| SLC26A2 (UniProt P50443) | inactive: -0.002 | inactive: 0.042 | inactive: 0.002 | inactive: 0.051 | inactive: 0.135 | inactive: -0.101 | inactive: -0.023 | inactive: 0.024 | inactive: 0.032 | inactive: -0.152 | inactive: 0.12 | inactive: 0 | inactive: 0.009 | inactive: -0.059 | inactive: -0.013 | inactive: -0.055 | – | inactive: 0.056 | – | inactive: -0.026 |
| SLU7 (UniProt O95391) | inactive: -0.043 | – | inactive: 0.062 | – | inactive: -0.004 | inactive: -0.188 | inactive: 0.166 | inactive: 0.093 | inactive: -0.027 | inactive: -0.086 | inactive: -0.042 | inactive: -0.065 | inactive: 0.016 | inactive: -0.006 | inactive: 0.071 | inactive: 0.021 | inactive: 0.002 | – | inactive: 0.026 | inactive: -0.07 |
| SLC30A1 (UniProt Q9Y6M5) | inactive: 0.004 | inactive: 0.013 | inactive: 0.043 | inactive: 0.009 | inactive: -0.041 | inactive: -0.037 | inactive: 0.049 | inactive: -0.011 | inactive: -0.033 | inactive: -0.01 | inactive: 0.07 | inactive: -0.009 | inactive: 0.013 | inactive: 0.037 | inactive: -0.011 | inactive: -0.021 | inactive: -0.059 | inactive: 0.007 | inactive: 0.02 | inactive: -0.018 |
| SLC9A6 isoform 2 (UniProt Q92581) | inactive: 0.005 | inactive: 0.024 | inactive: 0.102 | inactive: 0.025 | inactive: -0.08 | inactive: 0.029 | inactive: -0.108 | inactive: 0.017 | inactive: 0.03 | inactive: 0.028 | inactive: 0.069 | inactive: 0.042 | inactive: 0 | inactive: -0.028 | inactive: 0.016 | inactive: -0.057 | – | inactive: 0.024 | – | inactive: 0.125 |
| SLC35E1 (UniProt Q96K37) | inactive: -0.031 | inactive: 0.018 | inactive: 0.039 | inactive: 0.019 | inactive: -0.009 | inactive: -0.002 | inactive: -0.013 | inactive: -0.017 | inactive: 0.004 | inactive: -0.015 | inactive: 0.012 | inactive: 0.011 | inactive: 0.024 | inactive: 0.038 | inactive: 0.015 | inactive: 0.031 | – | inactive: 0 | – | inactive: -0.006 |
| SLC39A7 (UniProt Q92504) | inactive: 0.094 | inactive: 0.039 | inactive: 0.071 | inactive: 0.008 | inactive: 0.023 | inactive: -0.049 | inactive: 0.092 | – | inactive: 0.029 | inactive: 0.01 | inactive: -0.009 | inactive: -0.053 | inactive: -0.018 | – | inactive: -0.004 | inactive: -0.143 | inactive: -0.034 | inactive: 0.002 | inactive: 0.028 | inactive: -0.012 |
| SLC35A3 isoform 2 (UniProt Q9Y2D2) | inactive: -0.024 | inactive: -0.031 | inactive: 0.056 | inactive: 0.005 | inactive: -0.374 | active: -1.1 | inactive: 0.336 | – | inactive: -0.026 | inactive: -0.406 | inactive: -0.079 | inactive: 0.016 | inactive: 0.069 | – | inactive: 0.067 | inactive: -0.019 | inactive: 0.069 | inactive: -0.019 | inactive: 0.198 | – |
| SLC30A7 (UniProt Q8NEW0) | inactive: 0.072 | inactive: 0.055 | inactive: -0.083 | inactive: 0.041 | inactive: -0.078 | inactive: -0.083 | inactive: 0.03 | inactive: 0.018 | inactive: -0.065 | inactive: 0.133 | inactive: -0.009 | – | inactive: 0 | inactive: -0.066 | inactive: 0.174 | inactive: -0.023 | inactive: -0.253 | inactive: 0.039 | inactive: 0.203 | inactive: 0.095 |
| SLC35B4 (UniProt Q969S0) | inactive: 0.05 | inactive: 0.035 | inactive: 0.067 | inactive: 0.035 | inactive: -0.053 | inactive: -0.171 | inactive: 0.152 | – | inactive: 0.091 | inactive: -0.08 | inactive: 0.032 | inactive: -0.043 | inactive: 0.075 | – | inactive: 0.09 | inactive: -0.223 | inactive: -0.037 | inactive: -0.145 | inactive: -0.022 | inactive: 0.046 |

Quoted at random: two entries already listed.

| Target | log2 fold change (vemurafenib) | log2 fold change [1] | log2 fold change [2] | log2 fold change (volasertib) | log2 fold change [3] | log2 fold change [4] | log2 fold change [5] | log2 fold change (saracatinib) | log2 fold change (sotrastaurin) | log2 fold change (alvocidib) | log2 fold change (Tubastatin A) | log2 fold change [6] | log2 fold change (defactinib) | log2 fold change [7] | log2 fold change (encorafenib) | log2 fold change [8] | log2 fold change (alisertib) | log2 fold change [9] | log2 fold change (gefitinib) | log2 fold change (barasertib) |
| --- | --- | --- | --- | --- | --- | --- | --- | --- | --- | --- | --- | --- | --- | --- | --- | --- | --- | --- | --- | --- |
| SLC35F2 (UniProt Q8IXU6) | inactive: 0.015 | inactive: 0.008 | inactive: 0.012 | inactive: 0.023 | inactive: 0.015 | inactive: -0.188 | inactive: 0.124 | inactive: -0.021 | – | inactive: -0.133 | inactive: 0.014 | inactive: -0.065 | inactive: 0.101 | inactive: -0.069 | inactive: 0.024 | inactive: -0.084 | inactive: -0.021 | inactive: 0.027 | inactive: -0.026 | inactive: -0.063 |
| SLC35A3 isoform 2 (UniProt Q9Y2D2) | inactive: -0.024 | inactive: -0.031 | inactive: 0.056 | inactive: 0.005 | inactive: -0.374 | active: -1.1 | inactive: 0.336 | – | inactive: -0.026 | inactive: -0.406 | inactive: -0.079 | inactive: 0.016 | inactive: 0.069 | – | inactive: 0.067 | inactive: -0.019 | inactive: 0.069 | inactive: -0.019 | inactive: 0.198 | – |
